Source: paper PMC4804180
No constants are given. Whether binding was seen depends on the method and setting. Binding seen in cells or lysates may run through a third protein. Some binding calls cover weakened binding; strength is not graded here.

Protein sequences, listed by entry. Tags and fused reporters are not part of them.
UniProt Q02780: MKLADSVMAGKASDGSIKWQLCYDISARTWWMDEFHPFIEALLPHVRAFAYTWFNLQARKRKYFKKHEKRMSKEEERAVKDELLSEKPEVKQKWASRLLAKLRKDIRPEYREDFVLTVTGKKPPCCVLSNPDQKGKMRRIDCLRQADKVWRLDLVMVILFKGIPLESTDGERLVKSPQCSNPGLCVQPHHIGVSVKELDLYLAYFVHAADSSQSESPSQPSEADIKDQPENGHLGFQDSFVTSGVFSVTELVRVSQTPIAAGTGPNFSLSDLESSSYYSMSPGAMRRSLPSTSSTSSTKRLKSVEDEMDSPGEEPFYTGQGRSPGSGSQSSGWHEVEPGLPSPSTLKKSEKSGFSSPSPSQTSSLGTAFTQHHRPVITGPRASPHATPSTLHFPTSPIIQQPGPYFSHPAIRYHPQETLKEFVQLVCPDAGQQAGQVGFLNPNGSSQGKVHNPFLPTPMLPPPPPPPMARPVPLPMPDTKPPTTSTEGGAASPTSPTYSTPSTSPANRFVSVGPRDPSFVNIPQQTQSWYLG

Target: T1, Zinc finger- and BTB domain-containing protein 20 (Zbtb20) (mouse) (UniProt Q8K0L9)
T1 sequence: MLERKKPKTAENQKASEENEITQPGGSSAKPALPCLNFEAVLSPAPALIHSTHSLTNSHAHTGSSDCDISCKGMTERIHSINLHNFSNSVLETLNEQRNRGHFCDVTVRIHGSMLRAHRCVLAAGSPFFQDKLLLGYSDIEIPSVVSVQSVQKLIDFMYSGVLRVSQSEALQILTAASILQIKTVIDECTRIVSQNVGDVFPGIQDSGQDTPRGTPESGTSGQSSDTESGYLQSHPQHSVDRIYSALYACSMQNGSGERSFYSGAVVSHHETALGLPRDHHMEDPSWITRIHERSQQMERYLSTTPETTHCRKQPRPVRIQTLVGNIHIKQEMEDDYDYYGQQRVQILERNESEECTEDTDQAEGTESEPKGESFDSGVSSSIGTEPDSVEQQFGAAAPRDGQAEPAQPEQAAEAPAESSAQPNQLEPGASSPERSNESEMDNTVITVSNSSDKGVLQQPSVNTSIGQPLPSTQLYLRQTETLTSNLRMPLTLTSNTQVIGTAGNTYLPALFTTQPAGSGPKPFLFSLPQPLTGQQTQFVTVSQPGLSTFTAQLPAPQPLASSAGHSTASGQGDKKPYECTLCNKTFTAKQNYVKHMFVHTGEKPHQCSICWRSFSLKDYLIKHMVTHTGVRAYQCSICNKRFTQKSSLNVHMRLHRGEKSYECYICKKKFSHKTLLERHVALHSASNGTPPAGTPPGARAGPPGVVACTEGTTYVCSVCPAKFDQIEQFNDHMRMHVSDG
Assay: co-IP; lysates of transfected cells (50 mM HEPES-NaOH pH 7.5, 50 mM NaCl, 0.5% Triton X-100) incubated 3 h at 4 °C with anti-FLAG M2 affinity gel; washed four times with lysis buffer; blotted for Sox9, NFIA and FLAG

binding: binds
Substance: nuclear factor I/A (NFIA) (from UniProt Q02780 1-532)
